Experimental findings from paper PMC6443209 are described below.

Experiment [1] addresses T1, Pol1-Flag (catalytic subunit of the DNA polymerase alpha complex, fission yeast) (S. pombe) (UniProt P28040).
T1 sequence: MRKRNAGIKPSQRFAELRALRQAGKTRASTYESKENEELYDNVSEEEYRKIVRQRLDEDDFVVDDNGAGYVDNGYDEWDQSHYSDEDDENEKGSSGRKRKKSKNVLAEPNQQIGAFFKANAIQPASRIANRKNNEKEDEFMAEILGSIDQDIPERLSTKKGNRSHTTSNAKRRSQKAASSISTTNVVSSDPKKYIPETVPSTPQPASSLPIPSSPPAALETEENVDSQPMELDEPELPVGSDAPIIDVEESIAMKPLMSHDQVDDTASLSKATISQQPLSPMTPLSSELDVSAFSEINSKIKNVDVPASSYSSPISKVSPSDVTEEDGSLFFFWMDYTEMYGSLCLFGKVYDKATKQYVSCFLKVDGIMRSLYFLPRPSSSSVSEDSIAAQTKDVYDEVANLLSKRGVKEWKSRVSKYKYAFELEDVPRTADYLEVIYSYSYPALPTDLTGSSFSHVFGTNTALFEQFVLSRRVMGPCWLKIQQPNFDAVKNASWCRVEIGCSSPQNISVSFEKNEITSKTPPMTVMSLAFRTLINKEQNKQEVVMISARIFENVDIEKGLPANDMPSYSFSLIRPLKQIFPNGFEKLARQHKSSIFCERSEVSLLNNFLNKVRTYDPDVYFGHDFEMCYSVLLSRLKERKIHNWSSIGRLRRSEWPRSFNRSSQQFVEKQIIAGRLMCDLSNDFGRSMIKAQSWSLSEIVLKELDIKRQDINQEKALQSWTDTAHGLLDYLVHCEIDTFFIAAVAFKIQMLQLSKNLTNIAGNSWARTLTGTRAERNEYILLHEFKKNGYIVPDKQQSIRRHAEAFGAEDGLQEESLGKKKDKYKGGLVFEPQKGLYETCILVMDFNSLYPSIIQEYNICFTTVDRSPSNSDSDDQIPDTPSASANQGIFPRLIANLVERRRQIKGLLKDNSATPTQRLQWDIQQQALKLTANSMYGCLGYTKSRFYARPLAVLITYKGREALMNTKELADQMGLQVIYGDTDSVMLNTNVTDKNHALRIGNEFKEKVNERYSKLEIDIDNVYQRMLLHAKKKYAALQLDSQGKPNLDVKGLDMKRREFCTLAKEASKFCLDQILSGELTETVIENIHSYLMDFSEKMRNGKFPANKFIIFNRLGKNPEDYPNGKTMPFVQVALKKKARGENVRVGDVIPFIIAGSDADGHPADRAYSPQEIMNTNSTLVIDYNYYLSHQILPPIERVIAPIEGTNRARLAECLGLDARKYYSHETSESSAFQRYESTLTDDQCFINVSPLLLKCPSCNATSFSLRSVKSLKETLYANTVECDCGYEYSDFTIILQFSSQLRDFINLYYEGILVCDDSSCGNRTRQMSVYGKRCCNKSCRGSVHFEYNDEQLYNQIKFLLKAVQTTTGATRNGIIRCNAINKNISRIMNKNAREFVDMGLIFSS
The experiment is described as follows: co-IP; extracts of exponentially growing wt S. pombe cells; lysis in IP buffer (HEPES pH 7.5, 150 mM NaCl, EDTA, Triton X-100, NP-40, DNase 10 U/ml); anti-Flag M2 overnight; three washes with IP buffer + 0.5 M NaCl; Western blot. A general note: Immunoblotting shows a protein as a band on a membrane.

Experiment [2] deals with T2, Ten1-Flag (fission yeast Ten1) (S. pombe) (UniProt P0C5Y7).
T2 sequence: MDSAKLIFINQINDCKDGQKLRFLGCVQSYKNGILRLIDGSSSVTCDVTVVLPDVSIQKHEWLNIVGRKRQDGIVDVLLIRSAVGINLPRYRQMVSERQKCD
The experiment is described as above.

Results are given in words; binding and its absence hold for the method and conditions named. In cells and extracts the contact can be indirect. Some entries that bind do so weakly or less than the wild type. Where a sequence is shown, tags or fusion partners need not be part of it.

B1: Stn1-Myc (fission yeast Stn1, extracts of wt cells) (protein, UniProt Q0E7J7 1-325)
chain: MLENENQLTHQFPTLSRWNPMFISDVHKISFHPHLQRYIGFWMGFPIRWIQIVGYIAAIDIYEGKHVLTVDDCSGMVLRVVFIIQDDFSMSKRAISMSPGNVVCVFGKINSFRSEVELIAQSFEELRDPNDEWKAWQKRMRYKKNLTKISKNHHSIIRTPKKSYFPKDHAKELLKCIRQMCKLNVQAGFTIEELIIYLKAKELHLPLVHIFNVENEIVENCDGNHILALNFSLQTLLQHGRIVRKSNSVYMLVTSKDIIRFVIPLMASGLLEAHKVQSIVRDSNPMFITLPLSAIAKHICQFLLRTKGKWRQAKKYTWVRDNQFV
Take B1: the binding result in experiment [1] and in experiment [2] was “binds” in each case.
